# According to patent EP3173421A1 (Universitat de Barcelona, priority 2015, dated 2017):
# Assays:
# [1] = general procedure: Fmoc solid-phase peptide synthesis; Fmoc-Rink Amide MBHA; DIPCDI/HOBt; conditions: whole synthesis
# [2] = general procedure: Fmoc solid-phase peptide synthesis; Fmoc-Rink Amide MBHA or BHA resins; DIPCDI/HOBt; conditions: for step yield: purification step; for final HPLC purity: area integration of HPLC trace; for oxidative folding yield: oxidative folding step
# [3] = general procedure: Fmoc solid-phase peptide synthesis; BHA resin with Fmoc-Rink linker; DIPCDI/HOBt; conditions: whole synthesis
Substance,crude mass ([1]; scale 1.04 mmole),crude yield ([1]; scale 1.04 mmole),step yield [2],final HPLC purity ([2]; whole synthesis),"isolated mass ([2]; whole synthesis, scale 1.04 mmole)",crude mass ([1]; scale 0.46 mmole),crude yield ([2]; whole synthesis),crude mass ([3]; scale 0.0366 mmole),oxidative folding yield [2],crude mass ([3]; scale 0.0345 mmole),crude mass ([3]; scale 0.039 mmole),crude mass ([3]; scale 0.032 mmole)
heptanoyl-Dab-Thr-Dab-cyclo(S-S)[Cys-Dab-DAoc-Nle-Dab-Dab-DCys],1.429 g,89%,61%,>99%,0.878 g,–,–,–,–,–,–,–
hexanoyl-Dab-Thr-Dab-cyclo(S-S)[Cys-Dab-DAoc-Nle-Dab-Dab-DCys],–,–,20%,>99%,–,0.0575 g,100%,–,–,–,–,–
octanoyl-Dab-Thr-Dab-cyclo(S-S)[Cys-Dab-DAoc-OLe-Dab-Dab-DCys],–,–,25%,>99%,–,–,62%,27.3 mg,100%,–,–,–
heptanoyl-Dab-Thr-Dab-cyclo(S-S)[Cys-Dab-DAoc-OLe-Dab-Dab-DCyc],–,–,31%,>99%,–,–,24%,–,97%,10 mg,–,–
DAoc-Thr-Dab-cyclo(S-S)[Cys-Dab-DAoc-OLe-Dab-Dab-DCys],–,–,19%,>99%,–,–,43%,–,95%,–,18.5 mg,–
hexanoyl-Dab-Thr-Dab-cyclo(S-S)[Cys-Dab-DAoc-OLe-Dab-Dab-DCys],–,–,38%,>99%,–,–,49%,–,94%,–,–,18.1 mg

# For some assays here: The same purity stands for every peptide and may come from a single statement.
